Data as given in PMC13377104.
Residue numbers refer to the chain shown, from its start. Results are given in words; binding and its absence hold for the method and conditions named. In cells and extracts the contact can be indirect. Some entries that bind do so weakly or less than the wild type. Tags and fused reporters may be left off the sequences shown.

By UniProt entry, the sequences of proteins in these tests, tags left out. Residues count along the entry.
UniProt Q9XEB5, residues 1-117: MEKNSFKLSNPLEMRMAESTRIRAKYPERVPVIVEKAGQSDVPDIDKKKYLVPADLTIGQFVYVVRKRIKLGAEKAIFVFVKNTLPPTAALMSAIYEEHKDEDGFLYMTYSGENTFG

Assays:
[1] = molecular target: T1, GST-ATG8A (Arabidopsis thaliana) (UniProt Q8LEM4); assay: pull-down; as a1, GST-ATG8A and MBP-LCAT4 lysates with AIM wt or AIM mut competition peptide added, final concentration 200 µM
T1 sequence: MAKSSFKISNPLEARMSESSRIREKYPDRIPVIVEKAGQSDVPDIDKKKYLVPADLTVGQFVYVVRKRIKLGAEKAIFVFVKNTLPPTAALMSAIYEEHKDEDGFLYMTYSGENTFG

[2] = molecular target: T1, GST-ATG8A (Arabidopsis thaliana); assay: pull-down; GST-ATG8 proteins held on glutathione magnetic agarose beads; normalized E. coli clarified lysates mixed; IP buffer (100 mM NaPi pH 7.2, 300 mM NaCl, 1 mM DTT, 0.01% IGEPAL CA-630), 1 h at 4 °C; blots with anti-GST and anti-MBP
[3] = molecular target: T2, GST-ATG8B (Arabidopsis thaliana) (UniProt Q9XEB5); assay: as above
T2 sequence: T1 sequence with A2E, S4N, I8L, A14M, S17A, S20T, E24A, D28E, I30V, V58I

[4] = molecular target: T3, GST-ATG8F (Arabidopsis thaliana) (UniProt Q8VYK7); assay: as above
T3 sequence: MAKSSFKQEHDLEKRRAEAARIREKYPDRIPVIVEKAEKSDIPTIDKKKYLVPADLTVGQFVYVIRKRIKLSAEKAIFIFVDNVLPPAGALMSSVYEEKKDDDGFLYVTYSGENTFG

[5] = molecular target: T4, GST-ATG8I (Arabidopsis thaliana) (UniProt Q9LRP7); assay: as above
T4 sequence: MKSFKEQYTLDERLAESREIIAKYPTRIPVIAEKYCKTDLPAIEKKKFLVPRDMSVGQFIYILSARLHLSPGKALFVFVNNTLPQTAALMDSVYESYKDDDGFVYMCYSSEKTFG

[6] = molecular target: T5, GST-ATG8G (Arabidopsis thaliana) (UniProt Q9LZZ9); assay: as above
T5 sequence: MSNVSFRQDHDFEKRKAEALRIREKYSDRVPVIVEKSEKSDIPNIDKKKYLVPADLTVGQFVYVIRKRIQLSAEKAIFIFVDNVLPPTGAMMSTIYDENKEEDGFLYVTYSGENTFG

[7] = molecular target: T6, GST-ATG8D (Arabidopsis thaliana) (UniProt Q9SL04); assay: as above
T6 sequence: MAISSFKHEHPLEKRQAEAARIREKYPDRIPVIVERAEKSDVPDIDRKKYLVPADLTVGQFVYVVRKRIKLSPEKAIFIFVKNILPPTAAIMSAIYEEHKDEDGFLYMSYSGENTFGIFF

[8] = molecular target: T7, GST-ATG8H (Arabidopsis thaliana) (UniProt Q8S925); assay: as above
T7 sequence: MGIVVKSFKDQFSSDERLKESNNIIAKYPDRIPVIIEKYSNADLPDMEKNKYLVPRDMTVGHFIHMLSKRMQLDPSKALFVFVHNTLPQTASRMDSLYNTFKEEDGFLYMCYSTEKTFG

[9] = molecular target: T8, GST-ATG8C (Arabidopsis thaliana) (UniProt Q8S927); assay: as above
T8 sequence: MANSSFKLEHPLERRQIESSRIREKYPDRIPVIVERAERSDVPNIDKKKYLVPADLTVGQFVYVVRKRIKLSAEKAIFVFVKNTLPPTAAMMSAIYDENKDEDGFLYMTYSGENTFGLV

[10] = molecular target: T9, GFP-ATG8A (Arabidopsis thaliana) (UniProt Q8LEM4); assay: co-IP; GFP-Trap magnetic agarose beads on cleared lysates of about 100 seedlings (GFP-ATG8A expressing lcat3,4, complemented with LCAT4-RFP or LCAT4^AIM-RFP), after 1 h in MS-NC; 1 h at 4 °C; 25 mM Tris-HCl, 150 mM NaCl, 0.1% IGEPAL; Western blot
T9 sequence: T1 sequence

Measured: binding

B1: MBP-LCAT4 (enzyme, UniProt Q71N54 1-535)
chain: MSLLLEEIIRSVEALLKLRNRNQEPYVDPNLNPVLLVPGIAGSILNAVDHENGNEERVWVRIFGADHEFRTKMWSRFDPSTGKTISLDPKTSIVVPQDRAGLHAIDVLDPDMIVGRESVYYFHEMIVEMIGWGFEEGKTLFGFGYDFRQSNRLQETLDQFAKKLETVYKASGEKKINVISHSMGGLLVKCFMGLHSDIFEKYVQNWIAIAAPFRGAPGYITSTLLNGMSFVNGWEQNFFVSKWSMHQLLIECPSIYELMCCPYFKWELPPVLELWREKESNDGVGTSYVVLESYCSLESLEVFTKSLSNNTADYCGESIDLPFNWKIMEWAHKTKQVLASAKLPPKVKFYNIYGTNLETPHSVCYGNEKMPVKDLTNLRYFQPTYICVDGDGTVPMESAMADGLEAVARVGVPGEHRGILNDHRVFRMLKKWLNVGEPDPFYNPVNDYVILPTTYEFEKFHENGLEVASVKESWDIISDDNNIGTTGSTVNSISVSQPGDDQNPQAEARATLTVQPQSDGRQHVELNAVSVSVDA
binds: [1] | [2] | [3] | [4] | [5] | [6] | [7] | [8] | [9]

B2: LCAT4-RFP (enzyme, UniProt Q71N54 1-535)
chain: B1 chain
binds: [10]
